Data taken from patent US20240301051A1 (BEIGENE SWITZERLAND, published 2024).
No constants are given. Whether binding was seen depends on the method and setting. Binding calls can cover weak binding; strength is not graded here.

What was measured:
cyno CLDN6 (cyno) [1] = experiment: flow cytometry
cyno CLDN6 (cyno) [2] = experiment: flow cytometry, CHOK1-cyno CLDN6 cells

binding (cyno CLDN6 (cyno) [1])	binding (cyno CLDN6 (cyno) [2])	Binder
binds	–	BG87P (mouse anti-CLDN6 antibody, hybridoma clone) (antibody, V domains shown) VH: QIQLQQSGPELVKPGASVKISCKASGYSFTDYHINWVKQRPGQGLEWIGWIYPGSGYTKYNEKFKVKATLTVDTSSSTAYMHLTSLTSEDSAVYFCARSGIYHYVSSYYFDHWGQGTTLTVSS VL: DIVMTQSHTFMSTSVGDRVSITCKASQDVGTAVAWYQQKPGQSPKLLIYWASTRHTGVPDRFTGSGSGTDFTLTISNVQSEDLADYFCQQYSSYTFGGGTKLEIK
–	binds	BG87P-34 (antibody, V domains shown, Final lead clone, framework IGHV3-23 and IGKV1-39; also called BG87-34) VH: EVQLQESGGGLVQPGGSLRLSCAASGYSFSDYHINWVRQAPGKGLEWVGYIYPGSGHTKYNEKFKGRFTISRDTSSNTAYLQMNSLRAEDTAVYYCARSGIYHYVSSYYFDHWGQGTLVTVSS VL: DIQMTQSPSSLSASVGDRVTITCKASQDAGSAVAWYQQKPGKAPKLLIYWASTRHTGVPSRFSGSGSGTDFTLTISSLQPEDFATYYCQQYSSYTFGGGTKLEIK
